End groups of sequences in plain letters are not given here.
Test: general procedure: Fmoc solid-phase peptide synthesis; rink-amide resin
Conditions: whole synthesis

Row | Sequence | isolated yield [%]
1 | TFFYGGSRGKRNNFKTEEY | 15
2 | THRPPMWSPVWP | 12

From PMC7006505 (Chemical Science, 2019)
